# From patent US12065471B2, “B*44 restricted peptides for use in immunotherapy against cancers and related methods” (Immatics Biotechnologies GmbH, priority 2018, dated 2024)
# Test system: HLA molecules of primary tumor and normal tissue samples
# Assay: Identification and quantitation of tumor associated peptides presented on the cell surface (HLA immunoprecipitation, label-free LC-MS)
# Set-up: species or system human
# Conditions: HLA-B*44 positive normal (N=124) vs tumor samples (N=159), FIGS. 1A-1M
row,Substance,"over-presentation of peptide in cancer tissues (median MS signal intensities, detection frequency)"
1,NESDRLVYF (listed as Homo sapiens) [SEQ ID NO: 16],over-presentation
2,VEEEISRHY (listed as Homo sapiens) [SEQ ID NO: 283],over-presentation
3,SESKVFQLL (listed as Homo sapiens) [SEQ ID NO: 453],over-presentation
4,MEHSDENIQFW (listed as Homo sapiens) [SEQ ID NO: 19],over-presentation
5,NEVDGEYRY (listed as Homo sapiens) [SEQ ID NO: 452],over-presentation
6,AEKNRRDAETW (listed as Homo sapiens) [SEQ ID NO: 305],over-presentation

# Same assay, conditions: cancer entities on which the peptide was found presented (HLA immunoprecipitation, LC-MS); abbreviations in table footnotes
row,Substance,Peptide Presentation on cancer entities
1,147 (RMLSFQQMTW; listed as Homo sapiens) [compound 147],NHL
2,131 (RESHLTEIRQY; listed as Homo sapiens) [compound 131],"BRCA, PRCA"
3,19 (MEHSDENIQFW; listed as Homo sapiens) [compound 19],NHL
4,366 (EECGKAFKKF; listed as Homo sapiens) [compound 366],CLL
5,352 (QEDELVKIRKY; listed as Homo sapiens) [compound 352],"BRCA, CCC, CRC, HCC, MEL, NHL, NSCLCadeno, NSCLCsquam, OC, OSCAR, PACA, PRCA, RCC, SCLC, UEC"
6,336 (QEVNISLHY; listed as Homo sapiens) [compound 336],"BRCA, CRC, HNSCC, NSCLCsquam, OSCAR"
7,211 (LEMLDAHRL; listed as Homo sapiens) [compound 211],BRCA
8,115 (QEPFTRPVL; listed as Homo sapiens) [compound 115],NSCLCsquam
9,109 (AFSPAAGNTW; listed as Homo sapiens) [compound 109],CCC
10,76 (RLNEHPSNNW; listed as Homo sapiens) [compound 76],PACA
11,453 (SESKVFQLL; listed as Homo sapiens) [compound 453],"BRCA, CCC, CRC, HCC, HNSCC, NHL, NSCLCadeno, NSCLCsquam, OSCAR, PACA"
12,444 (SESALQTVI; listed as Homo sapiens) [compound 444],"CCC, NSCLCadeno, UBC"
13,369 (KELEERMLHW; listed as Homo sapiens) [compound 369],"HNSCC, MEL, NHL, NSCLCadeno"
14,229 (AEDLEKKYA; listed as Homo sapiens) [compound 229],"CCC, CLL, MEL, PACA, UEC"
15,25 (SEKEPGQQY; listed as Homo sapiens) [compound 25],HCC
16,430 (RELARVVTL; listed as Homo sapiens) [compound 430],SCLC
17,294 (EEWEWIQKL; listed as Homo sapiens) [compound 294],"GBM, HCC, PACA, UEC"
18,379 (AENRVGKMEA; listed as Homo sapiens) [compound 379],CLL
19,149 (AETEPERHLG; listed as Homo sapiens) [compound 149],CLL
20,146 (MEELRMLSF; listed as Homo sapiens) [compound 146],CLL
21,28 (QEFPAHSL; listed as Homo sapiens) [compound 28],CLL
22,275 (GEQPPEGQW; listed as Homo sapiens) [compound 275],CLL

row,Substance,Peptide Presentation on cancer entities
1,249 (YEMAIYKKY; listed as Homo sapiens) [compound 249],"MEL, PRCA"
2,129 (EEAMKRLSY; listed as Homo sapiens) [compound 129],"HNSCC, OSCAR"
3,48 (DEVRALIF; listed as Homo sapiens) [compound 48],HCC
4,200 (KELSVFKKF; listed as Homo sapiens) [compound 200],"CLL, NHL"
5,295 (QELEQEVISL; listed as Homo sapiens) [compound 295],CLL
6,301 (AERIMFSDL; listed as Homo sapiens) [compound 301],OSCAR
7,280 (AAEPLVGQRW; listed as Homo sapiens) [compound 280],RCC
8,355 (SETSTGTSV; listed as Homo sapiens) [compound 355],"NSCLCadeno, PACA"
9,133 (IEAPKLMVV; listed as Homo sapiens) [compound 133],"HNSCC, MEL, NSCLCadeno"
10,203 (REILHAQTL; listed as Homo sapiens) [compound 203],"CLL, NHL"
11,431 (QELLDFTNW; listed as Homo sapiens) [compound 431],SCLC
12,331 (KELEATKQYL; listed as Homo sapiens) [compound 331],"NSCLCsquam, OSCAR"
13,409 (QEAKPRATW; listed as Homo sapiens) [compound 409],"BRCA, CCC, CLL, CRC, GBC, GC, HCC, NHL, NSCLCadeno, NSCLCsquam, PRCA, UBC"
14,314 (EMREERKF; listed as Homo sapiens) [compound 314],"NSCLCadeno, NSCLCsquam"
15,9 (MEVDPIGHLYIF; listed as Homo sapiens) [compound 9],"GBC, HCC, NHL, NSCLCadeno, NSCLCsquam, OC, OSCAR"
16,317 (TEFQQIINL; listed as Homo sapiens) [compound 317],CLL
17,385 (LEHPFLVNLW; listed as Homo sapiens) [compound 385],"CLL, RCC"
18,315 (MEQQSQEY; listed as Homo sapiens) [compound 315],OSCAR
19,332 (SEADWLRFW; listed as Homo sapiens) [compound 332],"AML, BRCA, CCC, CLL, CRC, HCC, HNSCC, MEL, NHL, NSCLCadeno, NSCLCsquam, OC, OSCAR, PACA, PRCA, RCC, UBC, UEC"
20,155 (TEDARHPESW; listed as Homo sapiens) [compound 155],"CLL, NHL"
21,271 (REDLVGPEV; listed as Homo sapiens) [compound 271],CLL
22,174 (DENDAGNLITF; listed as Homo sapiens) [compound 174],OSCAR

row,Substance,Peptide Presentation on cancer entities
1,172 (RENPGMFSW; listed as Homo sapiens) [compound 172],MEL
2,178 (MEGAALLKIF; listed as Homo sapiens) [compound 178],PACA
3,412 (EESFDSKFY; listed as Homo sapiens) [compound 412],"CLL, CRC, HNSCC, NHL, NSCLCadeno, NSCLCsquam, PACA"
4,192 (LEIMTNLVTL; listed as Homo sapiens) [compound 192],BRCA
5,378 (QELFLQEVRM; listed as Homo sapiens) [compound 378],"BRCA, CRC, HCC, HNSCC, MEL, NSCLCadeno, NSCLCsquam, OC, OSCAR, PRCA"
6,354 (TEIMEKTTL; listed as Homo sapiens) [compound 354],CCC
7,333 (SEGTLPYSY; listed as Homo sapiens) [compound 333],"GC, NSCLCsquam, OSCAR"
8,221 (KEAFGPQAL; listed as Homo sapiens) [compound 221],NSCLCsquam
9,15 (MEAELVRRI; listed as Homo sapiens) [compound 15],MEL
10,421 (TEDYSKQAL; listed as Homo sapiens) [compound 421],"CCC, NSCLCsquam, UBC"
11,358 (TEFHGGLHY; listed as Homo sapiens) [compound 358],"BRCA, CRC, GC, HCC, HNSCC"
12,16 (NESDRLVYF; listed as Homo sapiens) [compound 16],"GBC, MEL, NHL"
13,424 (EEHVYESIIRW; listed as Homo sapiens) [compound 424],"CLL, CRC, NHL"
14,405 (YEHAFNSIVW; listed as Homo sapiens) [compound 405],RCC
15,347 (LENPHVQSV; listed as Homo sapiens) [compound 347],AML
16,252 (EEFIGKIGI; listed as Homo sapiens) [compound 252],"AML, BRCA, CCC, CLL, CRC, GBC, GC, HCC, HNSCC, MEL, NHL, NSCLCadeno, NSCLCsquam, OC, OSCAR, PACA, PRCA, RCC, SCLC, UBC, UEC"
17,164 (DEDGKIVGY; listed as Homo sapiens) [compound 164],HCC
18,64 (EEYQDSFERY; listed as Homo sapiens) [compound 64],"HNSCC, OSCAR"
19,20 (LEALLSDLF; listed as Homo sapiens) [compound 20],"BRCA, CRC, GC, NHL, NSCLCadeno, NSCLCsquam, OSCAR, UBC, UEC"
20,299 (AEVQIARKL; listed as Homo sapiens) [compound 299],"CLL, CRC, GBC, HCC, MEL, NHL, NSCLCadeno, OC, OSCAR, RCC, UEC"
21,166 (EEQDFINNRY; listed as Homo sapiens) [compound 166],GBM
22,171 (WEVVHTVF; listed as Homo sapiens) [compound 171],"GC, NSCLCsquam, OSCAR"

# Same assay, conditions: tumor tissue samples, LC-MS
row,Substance,presentation on cancer entities
1,NESDRLVYF (listed as Homo sapiens) [SEQ ID NO: 16],"gallbladder cancer (GBC), melanoma (MEL), and non-Hodgkin lymphoma (NHL)"
2,EEFLRPRSL (listed as Homo sapiens) [SEQ ID NO: 2],prostate cancer (PRCA)
